From article doi:10.1101/2025.09.11.675713 come the findings set out here.

The chains behind the UniProt entries cited, without tags or fusion partners. Where a name states a change or a piece, a line headed by the entry shows the natural chain unless it says otherwise. A line that says so, or that is headed by a name, gives the form on record, which may keep a tag or linker. Residues count along the entry.
UniProt Q9UQ35, residues 1-2748: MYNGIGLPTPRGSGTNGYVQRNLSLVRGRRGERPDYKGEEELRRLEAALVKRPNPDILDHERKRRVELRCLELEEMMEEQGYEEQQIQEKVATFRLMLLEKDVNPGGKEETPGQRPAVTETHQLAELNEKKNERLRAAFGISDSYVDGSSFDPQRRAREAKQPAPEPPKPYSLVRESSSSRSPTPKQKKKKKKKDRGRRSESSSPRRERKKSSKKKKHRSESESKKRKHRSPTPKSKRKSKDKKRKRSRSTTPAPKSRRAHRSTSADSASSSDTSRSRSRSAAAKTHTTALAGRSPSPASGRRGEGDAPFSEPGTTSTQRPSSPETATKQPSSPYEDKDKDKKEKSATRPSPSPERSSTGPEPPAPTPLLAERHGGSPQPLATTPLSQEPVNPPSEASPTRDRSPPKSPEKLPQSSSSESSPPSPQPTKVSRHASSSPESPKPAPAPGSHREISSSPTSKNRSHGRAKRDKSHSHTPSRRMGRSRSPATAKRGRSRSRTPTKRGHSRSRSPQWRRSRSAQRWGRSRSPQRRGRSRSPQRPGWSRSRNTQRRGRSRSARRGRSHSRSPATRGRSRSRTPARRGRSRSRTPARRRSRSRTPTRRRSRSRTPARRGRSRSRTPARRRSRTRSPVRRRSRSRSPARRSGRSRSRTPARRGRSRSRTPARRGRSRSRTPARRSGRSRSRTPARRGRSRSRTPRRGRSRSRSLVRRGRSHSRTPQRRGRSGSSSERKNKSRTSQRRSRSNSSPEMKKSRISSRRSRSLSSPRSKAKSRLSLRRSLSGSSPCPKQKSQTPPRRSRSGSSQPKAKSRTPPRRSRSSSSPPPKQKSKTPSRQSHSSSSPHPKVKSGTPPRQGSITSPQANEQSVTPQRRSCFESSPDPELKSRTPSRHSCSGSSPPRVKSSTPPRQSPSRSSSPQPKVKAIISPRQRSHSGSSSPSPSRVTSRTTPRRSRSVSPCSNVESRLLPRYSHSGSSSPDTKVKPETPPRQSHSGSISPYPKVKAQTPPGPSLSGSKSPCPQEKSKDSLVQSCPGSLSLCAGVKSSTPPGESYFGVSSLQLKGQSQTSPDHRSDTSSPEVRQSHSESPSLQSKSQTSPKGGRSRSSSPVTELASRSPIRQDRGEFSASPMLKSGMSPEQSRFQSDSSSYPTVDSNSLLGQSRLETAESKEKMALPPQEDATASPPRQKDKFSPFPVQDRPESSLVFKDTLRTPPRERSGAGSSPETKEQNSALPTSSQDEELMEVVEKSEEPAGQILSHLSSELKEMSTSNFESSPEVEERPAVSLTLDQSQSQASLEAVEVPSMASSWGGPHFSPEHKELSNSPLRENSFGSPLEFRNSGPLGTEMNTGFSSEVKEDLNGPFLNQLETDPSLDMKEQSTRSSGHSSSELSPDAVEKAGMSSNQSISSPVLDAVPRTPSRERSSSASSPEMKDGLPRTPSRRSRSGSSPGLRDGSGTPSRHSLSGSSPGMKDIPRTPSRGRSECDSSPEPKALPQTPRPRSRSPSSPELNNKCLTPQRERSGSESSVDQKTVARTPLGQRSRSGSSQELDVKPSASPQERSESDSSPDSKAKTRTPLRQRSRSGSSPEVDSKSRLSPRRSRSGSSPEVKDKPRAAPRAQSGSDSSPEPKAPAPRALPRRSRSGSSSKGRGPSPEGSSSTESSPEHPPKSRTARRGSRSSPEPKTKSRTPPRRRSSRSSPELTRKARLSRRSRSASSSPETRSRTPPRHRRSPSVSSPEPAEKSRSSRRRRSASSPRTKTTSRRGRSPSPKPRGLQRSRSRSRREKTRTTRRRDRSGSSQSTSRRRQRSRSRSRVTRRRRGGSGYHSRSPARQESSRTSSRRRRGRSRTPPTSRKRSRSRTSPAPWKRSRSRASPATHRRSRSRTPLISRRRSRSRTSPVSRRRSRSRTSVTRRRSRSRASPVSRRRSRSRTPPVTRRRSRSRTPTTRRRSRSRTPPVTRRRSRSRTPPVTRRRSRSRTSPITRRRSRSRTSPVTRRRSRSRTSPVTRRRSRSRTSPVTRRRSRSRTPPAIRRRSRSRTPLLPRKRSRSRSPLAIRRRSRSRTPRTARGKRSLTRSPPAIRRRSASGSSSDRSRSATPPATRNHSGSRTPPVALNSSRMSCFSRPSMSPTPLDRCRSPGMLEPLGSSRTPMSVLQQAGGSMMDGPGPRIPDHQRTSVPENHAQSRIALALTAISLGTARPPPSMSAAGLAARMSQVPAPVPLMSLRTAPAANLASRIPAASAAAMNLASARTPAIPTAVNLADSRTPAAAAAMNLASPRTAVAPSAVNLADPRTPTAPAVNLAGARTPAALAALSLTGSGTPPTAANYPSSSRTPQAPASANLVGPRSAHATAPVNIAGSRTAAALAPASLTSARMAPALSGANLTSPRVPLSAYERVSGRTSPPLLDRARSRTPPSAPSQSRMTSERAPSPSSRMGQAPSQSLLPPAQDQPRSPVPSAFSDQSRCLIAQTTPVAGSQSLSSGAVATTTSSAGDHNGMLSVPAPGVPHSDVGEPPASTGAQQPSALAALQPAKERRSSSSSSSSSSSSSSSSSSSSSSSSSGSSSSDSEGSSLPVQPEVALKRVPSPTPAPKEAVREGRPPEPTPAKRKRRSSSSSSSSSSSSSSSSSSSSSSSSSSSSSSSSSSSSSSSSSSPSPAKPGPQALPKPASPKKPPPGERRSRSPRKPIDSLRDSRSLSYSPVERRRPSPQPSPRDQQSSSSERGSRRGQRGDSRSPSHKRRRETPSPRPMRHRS
SRRM2 S1444P, endogenously mVenus-labeled (human (endogenous in HEK 293T)) (Q9UQ35, form named): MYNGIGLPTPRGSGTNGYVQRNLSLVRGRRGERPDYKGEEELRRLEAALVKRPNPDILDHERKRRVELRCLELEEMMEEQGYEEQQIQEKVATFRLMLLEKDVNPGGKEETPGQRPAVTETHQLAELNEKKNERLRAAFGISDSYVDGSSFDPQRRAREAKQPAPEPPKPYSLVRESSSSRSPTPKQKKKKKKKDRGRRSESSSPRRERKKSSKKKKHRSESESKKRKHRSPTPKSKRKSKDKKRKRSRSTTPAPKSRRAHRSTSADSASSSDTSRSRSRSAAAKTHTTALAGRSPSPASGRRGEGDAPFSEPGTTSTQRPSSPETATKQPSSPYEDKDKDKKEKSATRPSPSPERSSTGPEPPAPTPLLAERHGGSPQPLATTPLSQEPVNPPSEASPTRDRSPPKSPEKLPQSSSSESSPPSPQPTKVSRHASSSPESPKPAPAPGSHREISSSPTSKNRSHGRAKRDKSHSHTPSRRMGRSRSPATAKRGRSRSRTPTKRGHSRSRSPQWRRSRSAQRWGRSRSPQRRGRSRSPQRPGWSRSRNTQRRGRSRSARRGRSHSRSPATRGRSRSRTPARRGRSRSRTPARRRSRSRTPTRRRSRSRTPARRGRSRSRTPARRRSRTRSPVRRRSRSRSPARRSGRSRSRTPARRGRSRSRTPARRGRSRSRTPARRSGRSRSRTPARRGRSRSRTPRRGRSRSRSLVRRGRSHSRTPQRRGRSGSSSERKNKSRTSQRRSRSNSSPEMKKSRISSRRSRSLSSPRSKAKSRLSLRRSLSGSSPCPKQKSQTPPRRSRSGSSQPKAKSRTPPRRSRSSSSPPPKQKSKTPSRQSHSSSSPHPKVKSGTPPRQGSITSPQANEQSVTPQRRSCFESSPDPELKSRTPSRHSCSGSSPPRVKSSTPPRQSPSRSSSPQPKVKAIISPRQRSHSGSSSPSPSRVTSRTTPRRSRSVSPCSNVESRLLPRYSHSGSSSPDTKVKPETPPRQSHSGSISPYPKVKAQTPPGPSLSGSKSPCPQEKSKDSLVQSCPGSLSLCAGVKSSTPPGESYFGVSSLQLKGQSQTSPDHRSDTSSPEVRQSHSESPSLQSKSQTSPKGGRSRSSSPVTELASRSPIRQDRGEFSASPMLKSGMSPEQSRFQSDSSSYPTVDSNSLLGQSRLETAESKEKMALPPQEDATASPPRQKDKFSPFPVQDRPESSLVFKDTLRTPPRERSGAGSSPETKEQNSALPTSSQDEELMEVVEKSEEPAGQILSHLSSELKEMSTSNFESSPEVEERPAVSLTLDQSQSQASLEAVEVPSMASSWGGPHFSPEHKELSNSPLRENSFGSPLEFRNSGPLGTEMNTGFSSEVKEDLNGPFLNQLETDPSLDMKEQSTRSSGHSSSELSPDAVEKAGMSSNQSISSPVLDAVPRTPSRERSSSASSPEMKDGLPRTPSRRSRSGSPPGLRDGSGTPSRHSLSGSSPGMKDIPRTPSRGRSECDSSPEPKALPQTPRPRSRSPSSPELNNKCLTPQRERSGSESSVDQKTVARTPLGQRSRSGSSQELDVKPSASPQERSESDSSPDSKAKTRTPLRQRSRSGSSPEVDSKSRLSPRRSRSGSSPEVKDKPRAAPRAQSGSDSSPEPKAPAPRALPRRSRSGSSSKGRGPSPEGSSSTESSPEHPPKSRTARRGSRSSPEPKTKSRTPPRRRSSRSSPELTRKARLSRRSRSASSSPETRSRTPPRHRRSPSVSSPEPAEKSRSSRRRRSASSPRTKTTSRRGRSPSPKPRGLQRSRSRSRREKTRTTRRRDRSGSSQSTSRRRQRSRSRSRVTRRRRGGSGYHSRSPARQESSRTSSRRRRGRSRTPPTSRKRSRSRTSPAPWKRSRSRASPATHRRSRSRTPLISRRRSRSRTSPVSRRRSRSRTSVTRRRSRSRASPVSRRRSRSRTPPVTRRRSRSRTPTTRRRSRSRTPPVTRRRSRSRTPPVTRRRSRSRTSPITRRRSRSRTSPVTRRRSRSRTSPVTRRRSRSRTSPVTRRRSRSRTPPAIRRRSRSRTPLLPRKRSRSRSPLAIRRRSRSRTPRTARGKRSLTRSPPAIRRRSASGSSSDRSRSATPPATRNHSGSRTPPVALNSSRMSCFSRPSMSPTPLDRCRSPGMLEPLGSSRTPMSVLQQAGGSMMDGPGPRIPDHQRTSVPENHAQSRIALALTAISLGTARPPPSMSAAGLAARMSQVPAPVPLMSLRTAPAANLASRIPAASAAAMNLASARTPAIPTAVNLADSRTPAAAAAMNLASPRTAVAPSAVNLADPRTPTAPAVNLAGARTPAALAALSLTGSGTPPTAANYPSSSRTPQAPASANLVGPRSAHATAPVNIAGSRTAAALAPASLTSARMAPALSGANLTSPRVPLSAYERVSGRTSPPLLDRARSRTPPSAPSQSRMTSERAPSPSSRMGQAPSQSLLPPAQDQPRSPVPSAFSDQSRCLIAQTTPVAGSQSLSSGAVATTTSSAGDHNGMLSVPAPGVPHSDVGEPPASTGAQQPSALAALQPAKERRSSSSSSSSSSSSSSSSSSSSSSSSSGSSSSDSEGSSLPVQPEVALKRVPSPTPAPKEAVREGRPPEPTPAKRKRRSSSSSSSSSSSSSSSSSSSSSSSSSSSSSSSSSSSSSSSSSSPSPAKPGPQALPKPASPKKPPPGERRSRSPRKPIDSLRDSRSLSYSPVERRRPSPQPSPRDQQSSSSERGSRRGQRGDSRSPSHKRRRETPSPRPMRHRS
UniProt P38919: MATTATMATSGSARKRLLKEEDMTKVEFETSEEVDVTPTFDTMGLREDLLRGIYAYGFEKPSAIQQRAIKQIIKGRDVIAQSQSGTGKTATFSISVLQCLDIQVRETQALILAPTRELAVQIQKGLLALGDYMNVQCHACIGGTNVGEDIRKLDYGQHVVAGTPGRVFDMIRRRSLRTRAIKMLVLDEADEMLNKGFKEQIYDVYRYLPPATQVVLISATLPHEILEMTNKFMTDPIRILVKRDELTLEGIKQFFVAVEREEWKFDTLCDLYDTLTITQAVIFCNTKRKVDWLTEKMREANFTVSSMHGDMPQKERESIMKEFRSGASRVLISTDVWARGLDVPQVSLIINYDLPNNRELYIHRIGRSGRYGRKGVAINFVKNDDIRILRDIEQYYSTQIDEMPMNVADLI

These are yes or no findings as the source states them, for the method shown. In cells and extracts the contact can be indirect. Here binding means that the protein was enriched with, or labelled near, the bait; the list need not be complete. For some of these results: A no says only that the protein was not detected with the bait.

Test [1] deals with Serine/Arginine Repetitive Matrix Protein 2 (SRRM2), endogenously mVenus-labeled, wild type (human (endogenous in HEK 293T)) (UniProt Q9UQ35). Kind of test: affinity purification with mass spectrometry.
In test [2] the target is SRRM2 S1444P, endogenously mVenus-labeled (human (endogenous in HEK 293T)) (UniProt Q9UQ35). Kind of test: affinity purification with mass spectrometry.

As to SON (from UniProt P18583 1-2426), in test [1], the binding entry was “binds”.
On to EIF4A3 (from UniProt P38919 1-411), for which the binding entry in test [1] is reported as “binds”.

B1: U2AF1 (protein, UniProt Q01081 1-240)
chain: MAEYLASIFGTEKDKVNCSFYFKIGACRHGDRCSRLHNKPTFSQTIALLNIYRNPQNSSQSADGLRCAVSDVEMQEHYDEFFEEVFTEMEEKYGEVEEMNVCDNLGDHLVGNVYVKFRREEDAEKAVIDLNNRWFNGQPIHAELSPVTDFREACCRQYEMGECTRGGFCNFMHLKPISRELRRELYGRRRKKHRSRSRSRERRSRSRDRGRGGGGGGGGGGGGRERDRRRSRDRERSGRF
On to B1, for which, in test [1], the binding result is listed as “binds”.

B2: Apoptotic chromatin condensation inducer in the nucleus (ACIN1) (protein, UniProt Q9UKV3 1-1341)
chain: MWRRKHPRTSGGTRGVLSGNRGVEYGSGRGHLGTFEGRWRKLPKMPEAVGTDPSTSRKMAELEEVTLDGKPLQALRVTDLKAALEQRGLAKSGQKSALVKRLKGALMLENLQKHSTPHAAFQPNSQIGEEMSQNSFIKQYLEKQQELLRQRLEREAREAAELEEASAESEDEMIHPEGVASLLPPDFQSSLERPELELSRHSPRKSSSISEEKGDSDDEKPRKGERRSSRVRQARAAKLSEGSQPAEEEEDQETPSRNLRVRADRNLKTEEEEEEEEEEEEDDEEEEGDDEGQKSREAPILKEFKEEGEEIPRVKPEEMMDERPKTRSQEQEVLERGGRFTRSQEEARKSHLARQQQEKEMKTTSPLEEEEREIKSSQGLKEKSKSPSPPRLTEDRKKASLVALPEQTASEEETPPPLLTKEASSPPPHPQLHSEEEIEPMEGPAPAVLIQLSPPNTDADTRELLVSQHTVQLVGGLSPLSSPSDTKAESPAEKVPEESVLPLVQKSTLADYSAQKDLEPESDRSAQPLPLKIEELALAKGITEECLKQPSLEQKEGRRASHTLLPSHRLKQSADSSSSRSSSSSSSSSRSRSRSPDSSGSRSHSPLRSKQRDVAQARTHANPRGRPKMGSRSTSESRSRSRSRSRSASSNSRKSLSPGVSRDSSTSYTETKDPSSGQEVATPPVPQLQVCEPKERTSTSSSSVQARRLSQPESAEKHVTQRLQPERGSPKKCEAEEAEPPAATQPQTSETQTSHLPESERIHHTVEEKEEVTMDTSENRPENDVPEPPMPIADQVSNDDRPEGSVEDEEKKESSLPKSFKRKISVVSATKGVPAGNSDTEGGQPGRKRRWGASTATTQKKPSISITTESLKSLIPDIKPLAGQEAVVDLHADDSRISEDETERNGDDGTHDKGLKICRTVTQVVPAEGQENGQREEEEEEKEPEAEPPVPPQVSVEVALPPPAEHEVKKVTLGDTLTRRSISQQKSGVSITIDDPVRTAQVPSPPRGKISNIVHISNLVRPFTLGQLKELLGRTGTLVEEAFWIDKIKSHCFVTYSTVEEAVATRTALHGVKWPQSNPKFLCADYAEQDELDYHRGLLVDRPSETKTEEQGIPRPLHPPPPPPVQPPQHPRAEQREQERAVREQWAEREREMERRERTRSEREWDRDKVREGPRSRSRSRDRRRKERAKSKEKKSEKKEKAQEEPPAKLLDDLFRKTKAAPCIYWLPLTDSQIVQKEAERAERAKEREKRRKEQEEEEQKEREKEAERERNRQLEREKRREHSRERDRERERERERDRGDRDRDRERDRERGRERDRRDTKRHSRSRSRSTPVRDRGGRR
As to B2, the binding entry in test [1] is on record as “binds”; in test [2] it was “no binding”.

B3: DHX8 (protein, UniProt Q14562 1-1220)
chain: MAVAVAMAGALIGSEPGPAEELAKLEYLSLVSKVCTELDNHLGINDKDLAEFVISLAEKNTTFDTFKASLVKNGAEFTDSLISNLLRLIQTMRPPAKPSTSKDPVVKPKTEKEKLKELFPVLCQPDNPSVRTMLDEDDVKVAVDVLKELEALMPSAAGQEKQRDAEHRDRTKKKKRSRSRDRNRDRDRDRERNRDRDHKRRHRSRSRSRSRTRERNKVKSRYRSRSRSQSPPKDRKDRDKYGERNLDRWRDKHVDRPPPEEPTIGDIYNGKVTSIMQFGCFVQLEGLRKRWEGLVHISELRREGRVANVADVVSKGQRVKVKVLSFTGTKTSLSMKDVDQETGEDLNPNRRRNLVGETNEETSMRNPDRPTHLSLVSAPEVEDDSLERKRLTRISDPEKWEIKQMIAANVLSKEEFPDFDEETGILPKVDDEEDEDLEIELVEEEPPFLRGHTKQSMDMSPIKIVKNPDGSLSQAAMMQSALAKERRELKQAQREAEMDSIPMGLNKHWVDPLPDAEGRQIAANMRGIGMMPNDIPEWKKHAFGGNKASYGKKTQMSILEQRESLPIYKLKEQLVQAVHDNQILIVIGETGSGKTTQITQYLAEAGYTSRGKIGCTQPRRVAAMSVAKRVSEEFGCCLGQEVGYTIRFEDCTSPETVIKYMTDGMLLRECLIDPDLTQYAIIMLDEAHERTIHTDVLFGLLKKTVQKRQDMKLIVTSATLDAVKFSQYFYEAPIFTIPGRTYPVEILYTKEPETDYLDASLITVMQIHLTEPPGDILVFLTGQEEIDTACEILYERMKSLGPDVPELIILPVYSALPSEMQTRIFDPAPPGSRKVVIATNIAETSLTIDGIYYVVDPGFVKQKVYNSKTGIDQLVVTPISQAQAKQRAGRAGRTGPGKCYRLYTERAYRDEMLTTNVPEIQRTNLASTVLSLKAMGINDLLSFDFMDAPPMETLITAMEQLYTLGALDDEGLLTRLGRRMAEFPLEPMLCKMLIMSVHLGCSEEMLTIVSMLSVQNVFYRPKDKQALADQKKAKFHQTEGDHLTLLAVYNSWKNNKFSNPWCYENFIQARSLRRAQDIRKQMLGIMDRHKLDVVSCGKSTVRVQKAICSGFFRNAAKKDPQEGYRTLIDQQVVYIHPSSALFNRQPEWVVYHELVLTTKEYMREVTTIDPRWLVEFAPAFFKVSDPTKLSKQKKQQRLEPLYNRYEEPNAWRISRAFRRR
Regarding B3, the binding result in test [1] was “binds”.

B4: SRRM1 (protein, UniProt Q8IYB3 1-904)
chain: MDAGFFRGTSAEQDNRFSNKQKKLLKQLKFAECLEKKVDMSKVNLEVIKPWITKRVTEILGFEDDVVIEFIFNQLEVKNPDSKMMQINLTGFLNGKNAREFMGELWPLLLSAQENIAGIPSAFLELKKEEIKQRQIEQEKLASMKKQDEDKDKRDKEEKESSREKRERSRSPRRRKSRSPSPRRRSSPVRRERKRSHSRSPRHRTKSRSPSPAPEKKEKTPELPEPSVKVKEPSVQEATSTSDILKVPKPEPIPEPKEPSPEKNSKKEKEKEKTRPRSRSRSKSRSRTRSRSPSHTRPRRRHRSRSRSYSPRRRPSPRRRPSPRRRTPPRRMPPPPRHRRSRSPVRRRRRSSASLSGSSSSSSSSRSRSPPKKPPKRTSSPPRKTRRLSPSASPPRRRHRPSPPATPPPKTRHSPTPQQSNRTRKSRVSVSPGRTSGKVTKHKGTEKRESPSPAPKPRKVELSESEEDKGGKMAAADSVQQRRQYRRQNQQSSSDSGSSSSSEDERPKRSHVKNGEVGRRRRHSPSRSASPSPRKRQKETSPRGRRRRSPSPPPTRRRRSPSPAPPPRRRRTPTPPPRRRTPSPPPRRRSPSPRRYSPPIQRRYSPSPPPKRRTASPPPPPKRRASPSPPPKRRVSHSPPPKQRSSPVTKRRSPSLSSKHRKGSSPSRSTREARSPQPNKRHSPSPRPRAPQTSSSPPPVRRGASSSPQRRQSPSPSTRPIRRVSRTPEPKKIKKAASPSPQSVRRVSSSRSVSGSPEPAAKKPPAPPSPVQSQSPSTNWSPAVPVKKAKSPTPSPSPPRNSDQEGGGKKKKKKKDKKHKKDKKHKKHKKHKKEKAVAAAAAAAVTPAAIAAATTTLAQEEPVAAPEPKKETESEAEDNLDDLEKHLREKALRSMRKAQVSPQS
As to B4, in test [1], the binding entry is reported as “binds”.
